{"source": "patent US20040068005A1", "about": "“Pharmaceutical combinations” (priority 2000, published 2004)", "format_in_all_cases": "in vivo, New Zealand white rabbits", "key": {"[1]": {"test_system": "normal conscious rabbits", "experiment": "Hyperinsulinaemic euglycaemic glucose clamping (insulin sensitivity), normal rabbits", "protocol": "(§1) The experiments are carried out with adult, male New Zealand white rabbits, weighing 3.0-3.5 kg, housed as described in Am. J. Physiol 1994, Heart Circ. Physiol, 35: H2033-H2041 and J. Moll Cell.. Cardiol. 1997, 29: 1977-1983.\n(§2) To estimate insulin sensitivity and/or insulin resistance, hyperinsulinaemic (100 eU/ml) euglycaemic (5.5 mM/l) glucose clamping was used. The glucose clamping values (M) were established as values of glucose infusion rates expressed in mg/kg/min to maintain blood glucose level at 5.5 mM/l."}, "[2]": {"test_system": "hypercholesterolaemic, insulin resistant conscious rabbits", "experiment": "Hyperinsulinaemic euglycaemic glucose clamping (insulin sensitivity), hypercholesterolaemic rabbits", "settings": "in the presence of nitroglycerin and the drug, compared to the placebo patch group", "protocol": "(§3) The experiments are carried out with adult, male New Zealand white rabbits, weighing 3.0-3.5 kg, housed as described in Am. […] Physiol, 35: H2033-H2041 and J. Moll Cell.. Cardiol.\nas §2"}, "[3]": {"test_system": "streptozotocin diabetic rabbits", "experiment": "Femoral nerve conduction velocity, streptozotocin diabetes", "settings": "streptozotocin-diabetes model, drug alone; nitroglycerin 12-h patch on vs 12-h patch off over three days", "protocol": "as §1\nThese series of experiments were carried out to verify/exclude sensory neuropathy. Left saphenous nerve conduction velocity was determined as described in Eur J. Pharmacol 1999, 386:83-88.\nStreptozotocin (40 mg/kg i.v.) produced a decrease in nerve conduction velocity in femoral “A” and “C” fibres, respectively, as determined 8 weeks after streptozotocin injection. […] The combination of any of these drugs with nitroglycerin yielded an improvement of conduction velocity in streptozotocin-diabetic aminals similar to that seen with nitroglycerin alone."}, "[4]": {"test_system": "hypercholesterolaemic, insulin resistant rabbits", "experiment": "Femoral nerve conduction velocity, hyperlipidaemia-induced insulin resistance", "settings": "eight-week atherogenic diet, drug alone", "protocol": "as §3\nThese series of experiments were carried out to verify/exclude sensory neuropathy."}, "[5]": {"test_system": "normal conscious rabbits", "experiment": "Ventricular pacing-induced myocardial ischaemia (ST-segment elevation), normal rabbits", "protocol": "as §3\n(§4) The induction of global myocardial ischaemia was based on a method described as above."}, "[6]": {"test_system": "hypercholesterolaemic, insulin resistant conscious rabbits", "experiment": "Ventricular pacing-induced myocardial ischaemia (ST-segment elevation), hypercholesterolaemic rabbits", "protocol": "as §3, §4"}, "[7]": {"settings": "nitroglycerin combined with the drug"}}, "note": "At least one compound was matched to its structure with a doubt left.", "data": [{"smiles": "Cc1c(C)c2c(c(C)c1O)CCC(C)(COc1ccc(CC3SC(=O)NC3=O)cc1)O2", "note": "(stereo not drawn) [Troglitazon, troglitazone]", "values": [{"measurement": "M values of hyperinsulinaemic and euglycaemic glucose clamping", "setting": "[1]; drug alone, troglitazon 70 mg/kg/day p. os over 3 days, metformin 5 mg/kg/day i.v. over 3 days, glibenclamide 1 mg/kg i.v., idazoxan 2 mg/kg i.v.", "value": "significantly increased"}, {"measurement": "M values of hyperinsulinaemic and euglycaemic glucose clamping", "setting": "[1]; in the presence of transdermal nitroglycerin combined with the drug", "value": "significantly increased"}, {"measurement": "M values of hyperinsulinaemic and euglycaemic glucose clamping", "setting": "[2]", "value": "significantly increased"}, {"measurement": "nerve conduction in “C” fibres", "setting": "[3]", "value": "Neither troglitazon,nor glibenclamide, idazoxan or metformin produced any effect"}, {"measurement": "decrease in nerve conduction velocity in “C” fibres after atherogenic diet", "setting": "[4]", "value": "attenuated"}, {"measurement": "intracavitary ST-segment elevation", "setting": "[5]; drug alone", "value": "significantly decreased"}, {"measurement": "anti-ischaemic effect of combination with nitroglycerin", "setting": "[5]; [7]", "value": "anti-ischaemic effect similar to that produced by nitroglyc erin alone"}, {"measurement": "intracavitary ST-segment elevation / ischaemic changes produced by VOP", "setting": "[6]; drug alone", "value": "anti-ischaemic effect although of lower amplitude than that produced by nitroglycerin"}, {"measurement": "anti-ischaemic effect of combination with nitroglycerin", "setting": "[6]; [7]", "value": "exceeded that induced by nitroglycerin alone"}]}]}
